PubChem BioAssay AID1224826 – NIAID, 2016
Assay: 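Regulators of Tlr4 signalling leading to Tnf-alpha expression in macrophages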 (primary screen). Cells: RAW264.7 G9 macrophages from mouse bearing reporters for p65 (GFP) and the Tnf promoter (mCherry). Reagents: siRNA pool against mouse genes, 100 nM. Time to read-out: 16 h of LPS stimulation, after 2 days of siRNA transfection. Conditions: bacterial lipopolysaccharide (Salmonella minnesota R595), 10 ng/ml. Measured: 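Imaged Tnf reporter mCherry in nuclei, minus background, normalised per plate to the median and expressed as robust z-scores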. Direction: Tnf reporter robust z-score: higher = stronger Tnf promoter reporter signal after LPS; Tnf reporter intensity: higher = stronger Tnf promoter reporter signal. Call rule: 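Called active when robust z-score is at most -1.3, matching the median of the Tlr4 knock-down control, or over 3; control wells and wells with under 50 cells never active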. Calls: active = Tnf reporter clearly lowered or raised; inactive = no clear change in Tnf reporter.
In all, the deposit lists about 17,000 reagents; shown is an unselected part. About 1,110 of all reagents (6.6%) count as active. 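Active means lowered or raised reporter signal; replicate intensities are raw and not normalised per plate.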 Reagents against one gene are numbered here. No sequences are given here.

Target gene | reagent no. | Tnf reporter robust z-score | fewer than 50 cells in well | Tnf reporter intensity, replicate 1 | Tnf reporter intensity, replicate 2 | Outcome
Hsd17b14 | 1 | -1.23 | enough cells in well | 118 | 138 | inactive
Polr2k | 1 | – | fewer than 50 cells per well; well left out of calls | 77 | 69.6 | inactive
Ahcyl2 | 1 | – | fewer than 50 cells per well; well left out of calls | 167 | 73.5 | inactive
Zcchc17 | 1 | 0.76 | enough cells in well | 262 | 104 | inactive
Pms2 | 1 | -0.75 | enough cells in well | 200 | 129 | inactive
Ptpdc1 | 1 | 0.16 | enough cells in well | 117 | 221 | inactive
Chil6 | 1 | 0.24 | enough cells in well | 108 | 177 | inactive
Ccdc70 | 1 | – | fewer than 50 cells per well; well left out of calls | 192 | 15.1 | inactive
Rgs10 | 1 | 2.26 | enough cells in well | 220 | 230 | inactive
Nubp1 | 1 | -0.76 | enough cells in well | 186 | 52.9 | inactive
Or5p81 | 1 | 2.52 | enough cells in well | 220 | 168 | inactive
Mip | 1 | -0.37 | enough cells in well | 247 | 166 | inactive
Nmnat2 | 1 | -1.08 | enough cells in well | 115 | 115 | inactive
AI504432 | 1 | 0.52 | enough cells in well | 207 | 254 | inactive
Gm5115 | 1 | 0.55 | enough cells in well | 143 | 179 | inactive
Gtf2h4 | 1 | 0.71 | enough cells in well | 309 | 301 | inactive
Or8c9 | 1 | -0.57 | enough cells in well | 165 | 84.5 | inactive
Hsd17b2 | 1 | 1.51 | enough cells in well | 344 | 297 | inactive
2900092C05Rik | 1 | – | fewer than 50 cells per well; well left out of calls | 140 | 75.4 | inactive
Irf9 | 1 | -0.05 | enough cells in well | 195 | 177 | inactive
A730008H23Rik | 1 | 0.09 | enough cells in well | 160 | 166 | inactive
Prl5a1 | 1 | -1.21 | enough cells in well | 119 | 95 | inactive
Fry | 1 | 0.23 | enough cells in well | 163 | 206 | inactive
Fry | 2 | -0.43 | enough cells in well | 133 | 183 | inactive
Vwc2 | 1 | 1.94 | enough cells in well | 232 | 309 | inactive
Cuta | 1 | – | fewer than 50 cells per well; well left out of calls | 154 | 29.4 | inactive
Slc44a2 | 1 | 1.11 | enough cells in well | 485 | 71.4 | inactive
Qrfprl | 1 | -0.25 | enough cells in well | 106 | 149 | inactive
Cdhr5 | 1 | -0.56 | enough cells in well | 175 | 90.8 | inactive
Nf1 | 1 | -0.8 | enough cells in well | 213 | 133 | inactive
Ccdc68 | 1 | 0.11 | enough cells in well | 225 | 129 | inactive
Gja8 | 1 | -0.14 | enough cells in well | 229 | 238 | inactive
Mtg2 | 1 | -1.48 | enough cells in well | 132 | 84.9 | active
Inka2 | 1 | 4.28 | enough cells in well | 448 | 453 | active
Fer | 1 | 0.52 | enough cells in well | 293 | 159 | inactive
Rab17 | 1 | 0.07 | enough cells in well | 317 | 210 | inactive
Ttf1 | 1 | -0.61 | enough cells in well | 180 | 185 | inactive
Kdm5b | 1 | -0.14 | enough cells in well | 205 | 160 | inactive

Continued (8 carried over from the part before).
Target gene | reagent no. | Tnf reporter robust z-score | fewer than 50 cells in well | Tnf reporter intensity, replicate 1 | Tnf reporter intensity, replicate 2 | Outcome
Ccdc68 | 1 | 0.11 | enough cells in well | 225 | 129 | inactive
Gja8 | 1 | -0.14 | enough cells in well | 229 | 238 | inactive
Mtg2 | 1 | -1.48 | enough cells in well | 132 | 84.9 | active
Inka2 | 1 | 4.28 | enough cells in well | 448 | 453 | active
Fer | 1 | 0.52 | enough cells in well | 293 | 159 | inactive
Rab17 | 1 | 0.07 | enough cells in well | 317 | 210 | inactive
Ttf1 | 1 | -0.61 | enough cells in well | 180 | 185 | inactive
Kdm5b | 1 | -0.14 | enough cells in well | 205 | 160 | inactive
Ccdc82 | 1 | – | fewer than 50 cells per well; well left out of calls | 163 | 48.5 | inactive
Zdhhc15 | 1 | 1.96 | enough cells in well | 186 | 230 | inactive
Vmn1r174 | 1 | 0.69 | enough cells in well | 126 | 127 | inactive
Fosl1 | 1 | 0.5 | enough cells in well | 333 | 245 | inactive
Hacl1 | 1 | -0.67 | enough cells in well | 221 | 38.7 | inactive
Hcar2 | 1 | 0.47 | enough cells in well | 249 | 341 | inactive
Nfe2 | 1 | -1.51 | enough cells in well | 147 | 86.7 | active
Nudt4 | 1 | 0.3 | enough cells in well | 247 | 214 | inactive
Cdh8 | 1 | -0.32 | enough cells in well | 222 | 183 | inactive
Chrnb1 | 1 | 0.13 | enough cells in well | 299 | 177 | inactive
Plin1 | 1 | – | fewer than 50 cells per well; well left out of calls | 59.4 | 63.3 | inactive
Or4k44 | 1 | -0.44 | enough cells in well | 148 | 107 | inactive
Slc7a14 | 1 | 0.45 | enough cells in well | 136 | 176 | inactive
Sowahd | 1 | 1.62 | enough cells in well | 232 | 272 | inactive
Or2y1b | 1 | 2.97 | enough cells in well | 346 | 324 | inactive
Adgra2 | 1 | -0.01 | enough cells in well | 201 | 319 | inactive
Meox1 | 1 | -0.33 | enough cells in well | 261 | 161 | inactive
Ear6 | 1 | -0.45 | enough cells in well | 161 | 80 | inactive
Gm4792 | 1 | 3.46 | enough cells in well | 399 | 130 | active
Dkk3 | 1 | -1.46 | enough cells in well | 99.7 | 71.2 | active
